Record: PubChem BioAssay AID652243 (Drosophila RNAi Screening Center, 2013)

Screen: 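Fly regulators of androgen-dependent reporter output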 (primary screen)
System: Drosophila S2R+ cells
Reagent: long dsRNA against Drosophila genes
Duration: 72 h (48 h, then 24 h hormone)
Challenge: synthetic androgen R1881 at 10 nM for 24 h
Detection: 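Firefly light from an androgen-responsive reporter and Renilla control light per well, raw and unnormalised, for each of two replicates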
Scale: firefly reporter light: higher = more light from androgen-responsive reporter; Renilla control light: higher = more constitutive control signal (cell number, transfection)
Hit rule: 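Hit when the log firefly-to-Renilla ratio dropped or increased by a fixed fold versus the mean of GFP or LacZ controls across duplicate plates; lowering cut given as 1.5 and as 3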
Calls: active = hit: reporter lowered or raised; inactive = no hit
The screen tested about 24,000 reagents; this is a random part of those with a known target gene and a result. In the full data, 246 (1%) are marked active. 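Plates not normalised; calls are printed but the firefly/Renilla ratio behind them is not deposited; fold cut for lowering reported inconsistently.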 Raw values vary from plate to plate and are shown uncorrected. The record does not give: the amount of reagent.

| Target gene | DRSC id | firefly reporter light, replicate 1 | firefly reporter light, replicate 2 | Renilla control light, replicate 1 | Renilla control light, replicate 2 | Call |
| --- | --- | --- | --- | --- | --- | --- |
| otk (off-track) | DRSC07658 | 4.87e5 | 2.97e5 | 2.03e6 | 1.81e6 | inactive |
| otk (off-track) | DRSC29192 | 6.12e5 | 5.29e5 | 1.40e6 | 1.32e6 | inactive |
| otk (off-track) | DRSC36649 | – | – | – | – | inactive |
| otk (off-track) | DRSC36650 | – | – | – | – | inactive |
| CG17648 | DRSC00508 | 1.34e5 | 84362 | 9.00e5 | 1.01e6 | inactive |
| CG30271 | DRSC04170 | 2.93e5 | 3.18e5 | 1.79e6 | 1.93e6 | inactive |
| CG30271 | DRSC30044 | 1.08e6 | 9.44e5 | 9.94e5 | 1.12e6 | inactive |
| CG11726 | DRSC09858 | 1.91e5 | 2.46e5 | 2.02e6 | 1.57e6 | inactive |
| CG8500 | DRSC16434 | 1.64e5 | 1.92e5 | 2.89e6 | 3.23e6 | inactive |
| CG8500 | DRSC27083 | 6.33e5 | 3.70e5 | 9.00e5 | 5.63e5 | inactive |
| Nup75 (Nucleoporin 75kD) | DRSC06947 | 9.88e5 | 8.17e5 | 2.18e6 | 1.92e6 | inactive |
| Nup75 (Nucleoporin 75kD) | DRSC28056 | 4.36e5 | 3.00e5 | 1.63e6 | 1.52e6 | inactive |
| CG31121 | DRSC15361 | 1.38e5 | 1.61e5 | 2.31e6 | 2.07e6 | inactive |
| CG31121 | DRSC15363 | 2.41e5 | 2.11e5 | 1.89e6 | 2.13e6 | inactive |
| achi (achintya) | DRSC07276 | 3.57e5 | 2.44e5 | 1.70e6 | 1.47e6 | inactive |
| achi (achintya) | DRSC24803 | 9.57e5 | 1.09e6 | 1.34e6 | 1.30e6 | inactive |
| Trax (Translin associated factor X) | DRSC15709 | 82617 | 50850 | 4.06e5 | 4.73e5 | inactive |
| nac (neuronally altered carbohydrate) | DRSC16520 | 1.23e5 | 1.41e5 | 2.76e6 | 1.99e6 | inactive |
| CG30427 | DRSC04014 | 1.57e5 | 1.84e5 | 4.18e5 | 3.70e5 | inactive |
| CG30427 | DRSC04311 | 1.78e6 | 8.20e5 | 2.62e6 | 2.12e6 | inactive |
| CG30427 | DRSC04323 | 2.80e5 | 2.29e5 | 1.38e6 | 1.22e6 | inactive |
| CG30427 | DRSC26361 | 3.07e5 | 2.44e5 | 6.62e5 | 6.64e5 | inactive |
| if (inflated) | DRSC20341 | 5.17e5 | 3.47e5 | 2.87e6 | 1.67e6 | inactive |
| wry (weary) | DRSC00352 | 56497 | 64766 | 3.82e5 | 5.25e5 | inactive |
| wry (weary) | DRSC00456 | 69360 | 2.25e5 | 7.95e5 | 1.29e6 | inactive |
| wry (weary) | DRSC22414 | 4.99e5 | 1.05e6 | 8.55e5 | 1.73e6 | inactive |
| Spn77Ba (Serpin 77Ba) | DRSC10693 | 13463 | 37096 | 2.31e5 | 2.51e5 | inactive |
| CG15202 | DRSC19649 | 5.52e5 | 5.57e5 | 4.01e6 | 3.35e6 | inactive |
| Lcp65Af | DRSC11213 | 2.97e5 | 2.40e5 | 2.49e6 | 2.13e6 | inactive |
| Lcp65Af | DRSC25142 | 4.02e5 | 4.24e5 | 3.71e5 | 3.92e5 | inactive |
| CG11601 | DRSC00318 | 64615 | 61089 | 4.08e5 | 5.76e5 | inactive |
| Tim13 | DRSC09848 | 2.97e5 | 2.53e5 | 3.54e6 | 2.69e6 | inactive |
| del (deadlock) | DRSC03170 | 8.30e5 | 6.99e5 | 2.34e6 | 1.65e6 | inactive |
| Hex-t2 (Hexokinase testis 2) | DRSC22517 | 3.12e5 | 6.51e5 | 2.84e5 | 3.51e5 | inactive |
| Hex-t2 (Hexokinase testis 2) | DRSC28247 | 7.85e5 | 7.93e5 | 1.08e6 | 1.74e6 | inactive |
| CG13085 | DRSC02189 | 1.30e5 | 1.63e5 | 1.43e6 | 1.70e6 | inactive |
| CG13085 | DRSC28099 | 4.65e5 | 5.88e5 | 1.56e6 | 1.51e6 | inactive |
| CG31637 | DRSC02270 | 1.01e6 | 1.25e6 | 2.04e6 | 2.00e6 | inactive |
| CG31637 | DRSC03263 | 85630 | 98850 | 9.96e5 | 8.85e5 | inactive |
| CG31637 | DRSC25193 | 9.18e5 | 9.97e5 | 1.09e6 | 8.91e5 | inactive |
| CG3734 | DRSC15509 | 1.77e5 | 2.05e5 | 2.60e6 | 2.67e6 | inactive |
| CG3734 | DRSC25892 | 5.06e5 | 4.17e5 | 8.89e5 | 7.17e5 | inactive |
| CG10147 | DRSC09706 | 1.60e5 | 1.84e5 | 1.61e6 | 2.94e6 | inactive |
| CG10147 | DRSC29564 | 4.45e5 | 5.81e5 | 6.42e5 | 6.42e5 | inactive |
| CG11593 | DRSC08206 | 1.64e5 | 1.07e5 | 9.48e5 | 1.03e6 | inactive |
| Ance-3 | DRSC02648 | 2.44e5 | 2.52e5 | 1.92e6 | 2.27e6 | inactive |
| Ance-3 | DRSC02649 | 1.96e5 | 1.93e5 | 1.26e6 | 1.38e6 | inactive |
| Sf3b3 (Splicing factor 3b subunit 3) | DRSC08370 | 5.94e5 | 7.40e5 | 9.69e5 | 1.15e6 | inactive |
| CG14339 | DRSC00369 | 74421 | 73120 | 7.28e5 | 6.61e5 | inactive |
| CG14339 | DRSC26560 | 3.10e5 | 3.29e5 | 5.89e5 | 4.82e5 | inactive |
| CG34425 | DRSC12210 | 93623 | 67946 | 2.92e6 | 1.82e6 | inactive |
| CG34425 | DRSC22315 | 6.30e5 | 6.35e5 | 1.63e6 | 2.19e6 | inactive |
| CG12147 | DRSC12192 | 1.58e5 | 1.35e5 | 2.71e6 | 2.52e6 | inactive |
| CG12147 | DRSC30029 | 3.88e5 | 3.80e5 | 7.71e5 | 1.06e6 | inactive |
| CG34205 | DRSC04149 | 3.41e5 | 3.54e5 | 2.65e6 | 2.24e6 | inactive |
| CG34205 | DRSC22823 | 6.52e5 | 1.12e6 | 1.33e6 | 2.34e6 | inactive |
| CG11438 | DRSC11660 | 2.64e5 | 2.40e5 | 1.97e6 | 2.33e6 | inactive |
| CG11438 | DRSC36909 | – | – | – | – | inactive |

8 entries from above, ordered by “firefly reporter light, replicate 2”, highest first.
| Target gene | DRSC id | firefly reporter light, replicate 1 | firefly reporter light, replicate 2 | Renilla control light, replicate 1 | Renilla control light, replicate 2 | Call |
| --- | --- | --- | --- | --- | --- | --- |
| CG31637 | DRSC02270 | 1.01e6 | 1.25e6 | 2.04e6 | 2.00e6 | inactive |
| CG31637 | DRSC25193 | 9.18e5 | 9.97e5 | 1.09e6 | 8.91e5 | inactive |
| CG10147 | DRSC29564 | 4.45e5 | 5.81e5 | 6.42e5 | 6.42e5 | inactive |
| CG3734 | DRSC25892 | 5.06e5 | 4.17e5 | 8.89e5 | 7.17e5 | inactive |
| CG3734 | DRSC15509 | 1.77e5 | 2.05e5 | 2.60e6 | 2.67e6 | inactive |
| CG10147 | DRSC09706 | 1.60e5 | 1.84e5 | 1.61e6 | 2.94e6 | inactive |
| CG11593 | DRSC08206 | 1.64e5 | 1.07e5 | 9.48e5 | 1.03e6 | inactive |
| CG31637 | DRSC03263 | 85630 | 98850 | 9.96e5 | 8.85e5 | inactive |
